Measured values from article PMC3002266.

By UniProt entry, the sequences of proteins in these tests, tags left out. Where a name states a change or a piece, a line headed by the entry shows the natural chain unless it says otherwise.
UniProt Q9H3S7: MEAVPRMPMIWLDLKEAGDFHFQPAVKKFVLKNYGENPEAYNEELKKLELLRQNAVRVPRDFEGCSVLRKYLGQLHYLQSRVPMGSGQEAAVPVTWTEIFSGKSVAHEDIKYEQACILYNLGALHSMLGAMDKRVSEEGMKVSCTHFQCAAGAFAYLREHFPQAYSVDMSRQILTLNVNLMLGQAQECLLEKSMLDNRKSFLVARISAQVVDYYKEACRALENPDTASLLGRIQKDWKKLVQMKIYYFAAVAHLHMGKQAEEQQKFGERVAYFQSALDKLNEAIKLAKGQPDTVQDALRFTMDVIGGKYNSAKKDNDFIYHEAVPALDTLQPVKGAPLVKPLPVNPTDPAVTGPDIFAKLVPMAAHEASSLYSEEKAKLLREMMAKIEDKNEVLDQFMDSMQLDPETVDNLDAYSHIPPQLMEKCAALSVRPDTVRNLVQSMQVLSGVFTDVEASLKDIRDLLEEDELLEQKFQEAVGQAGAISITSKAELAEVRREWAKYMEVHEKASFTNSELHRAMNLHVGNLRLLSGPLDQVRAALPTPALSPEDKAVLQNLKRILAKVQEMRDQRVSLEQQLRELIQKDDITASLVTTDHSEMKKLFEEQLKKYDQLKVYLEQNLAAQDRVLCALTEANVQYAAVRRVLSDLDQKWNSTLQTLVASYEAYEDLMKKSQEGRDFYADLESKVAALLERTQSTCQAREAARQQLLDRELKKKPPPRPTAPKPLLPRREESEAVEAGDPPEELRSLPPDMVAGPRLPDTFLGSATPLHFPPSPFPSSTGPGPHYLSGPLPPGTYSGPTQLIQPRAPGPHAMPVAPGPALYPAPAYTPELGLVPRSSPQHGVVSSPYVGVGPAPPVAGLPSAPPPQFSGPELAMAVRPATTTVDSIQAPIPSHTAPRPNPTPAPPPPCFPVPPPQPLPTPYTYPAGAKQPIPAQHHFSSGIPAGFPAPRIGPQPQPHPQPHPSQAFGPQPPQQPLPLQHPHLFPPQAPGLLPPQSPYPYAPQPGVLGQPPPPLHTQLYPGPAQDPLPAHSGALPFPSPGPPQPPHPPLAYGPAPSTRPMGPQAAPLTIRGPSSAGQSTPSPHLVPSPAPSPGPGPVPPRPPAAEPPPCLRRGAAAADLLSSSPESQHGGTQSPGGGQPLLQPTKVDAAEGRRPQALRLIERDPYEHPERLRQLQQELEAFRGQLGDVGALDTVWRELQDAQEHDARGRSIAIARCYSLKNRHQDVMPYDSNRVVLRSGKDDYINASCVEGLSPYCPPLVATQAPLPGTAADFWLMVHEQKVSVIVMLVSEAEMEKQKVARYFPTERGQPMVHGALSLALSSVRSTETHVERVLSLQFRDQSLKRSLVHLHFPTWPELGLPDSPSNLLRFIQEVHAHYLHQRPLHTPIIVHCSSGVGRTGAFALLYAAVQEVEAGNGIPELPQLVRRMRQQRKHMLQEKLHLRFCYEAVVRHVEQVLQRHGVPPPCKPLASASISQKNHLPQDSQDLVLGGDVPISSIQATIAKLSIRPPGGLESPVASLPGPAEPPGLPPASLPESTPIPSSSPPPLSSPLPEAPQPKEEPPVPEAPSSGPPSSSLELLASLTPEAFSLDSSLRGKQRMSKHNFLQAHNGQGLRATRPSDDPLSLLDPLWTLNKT

Assays:
[1] = target: T1, GST-GrpL (UniProt O75791); assay: pull-down; GST, GST-Grb2 or GST-GrpL pre-adsorbed to glutathione-Sepharose beads, incubated 1 h at 4°C with lysates of transfected HEK293T cells (NP-40 lysis buffer, 150 mM NaCl, pH 8.0); five washes; Western blot with anti-GFP; only the target purified
T1 sequence: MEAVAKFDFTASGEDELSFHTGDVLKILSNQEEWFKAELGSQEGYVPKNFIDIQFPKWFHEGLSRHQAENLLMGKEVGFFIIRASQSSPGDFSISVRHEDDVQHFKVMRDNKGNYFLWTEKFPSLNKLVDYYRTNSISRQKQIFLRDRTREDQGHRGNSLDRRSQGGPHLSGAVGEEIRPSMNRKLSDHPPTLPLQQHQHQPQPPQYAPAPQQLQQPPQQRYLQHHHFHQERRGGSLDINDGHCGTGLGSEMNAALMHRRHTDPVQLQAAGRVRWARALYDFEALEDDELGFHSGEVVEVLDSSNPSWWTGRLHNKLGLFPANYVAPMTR

[2] = target: EGFP-ΔHD (1-704 joined to 1221-1636 by Glu-Phe) (human) (UniProt Q9H3S7); assay: far-Western, overlay or dot blot; lysates of HEK293T cells expressing HD-PTP mutants separated by SDS-PAGE and blotted on PVDF; overlay with 50 ng/ml GST-Grb2 or 100 ng/ml GST-GrpL overnight at 4°C; detected with anti-GST; only the binder purified

- binding [1]: no binding
Molecule: EGFP-ΔHD (1-704 joined to 1221-1636 by Glu-Phe) (from UniProt Q9H3S7) (domain or fragment)

- binding [2]: no binding (tested: 100 ng/ml GST-GrpL)
B1: GST-GrpL (protein, UniProt O75791 1-330)
chain: T1 sequence

Results are given in words; binding and its absence hold for the method and conditions named. For some assays here: Binding seen in cells or lysates may run through a third protein. Where a sequence is shown, tags or fusion partners need not be part of it. One block for each molecule: values may come before it.
